Data reported in the supplement of paper PMC12889115.
The other results are listed elsewhere or left out. Values are raw readings; no control value is given beside them.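 In the initial screen, polymyxin B was used at a concentration that permeabilizes Salmonella's outer membrane but not its inner membrane. Maximum growth was set by DMSO wells with or without polymyxin B. Since plates varied, data were ranked per plate, and compounds giving the lowest OD600 advanced as hits.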

Test system: Salmonella enterica serovar Typhimurium SL1344
Assay: bacterial growth OD600 after 18 h with compound and polymyxin B; higher = more bacterial growth (less inhibition)
Conditions: 50 µM, Mueller-Hinton broth

`CCN(CC)CC(O)COc1cc(CNC2(c3ccccc3)CC2)ccc1OC` (stereo not given) was tested, and the “bacterial growth OD600” value (polymyxin B 0.75 µg/mL) was 0.893.

With `COc1ccccc1Oc1ncccc1CNC(=O)Cc1ccccn1` the “bacterial growth OD600” value (polymyxin B 1 µg/mL) was 0.91.

In the case of `O=C(NCC[C@@H]1C[C@@H]2C=C[C@H]1C2)c1coc(COc2ccc3c(c2)OCO3)n1`, the “bacterial growth OD600” value (polymyxin B 0.75 µg/mL) is reported as 0.769.

For `COc1ccc(C(=O)NC2CC2)cc1OC1CCN(C/C=C/c2ccccc2)CC1`, the “bacterial growth OD600” value (polymyxin B 1 µg/mL) was 0.871.

In the case of `COc1cc(CN2CCN(Cc3ccc(NC(C)=O)cc3)CC2CCO)cc(OC)c1` (stereo not given), the “bacterial growth OD600” value (polymyxin B 1 µg/mL) is reported as 0.808.

With `O=C1N(CC2CCC2)CCCC1(O)CN1CCC2(CC1)OCCO2` (stereo not given) the “bacterial growth OD600” value (polymyxin B 1 µg/mL) was 0.907.

`COc1ccccc1CNc1nc(CN(CCO)C2CS(=O)(=O)CC2O)nc2c(C)cccc12` (stereo not given) was tested, and the “bacterial growth OD600” value (polymyxin B 0.75 µg/mL) was 1.06.

For `Cc1cccc(CNC(C)c2cnn(-c3cccc(F)c3)c2C)c1` (stereo not given), the “bacterial growth OD600” value (polymyxin B 1 µg/mL) was 1.1.

`O=C(c1ccc(N2CCC(NCC3C4CC5CC(C4)CC3C5)CC2)cc1)N1CCOCC1` (stereo not given) was tested, and the “bacterial growth OD600” value (polymyxin B 0.75 µg/mL) was 0.777.

With `CN(Cc1ccccc1)Cc1cc(C(=O)NCc2cnc3ccccc3c2)no1` the “bacterial growth OD600” value (polymyxin B 1 µg/mL) was 0.886.

In the case of `Fc1ccc(Oc2ncccc2CNC2CCSCC2)cc1F`, the “bacterial growth OD600” value (polymyxin B 1 µg/mL) is reported as 0.827.

In the case of `CCCN(CC1CCCO1)C(=O)c1csc2nc(-c3ccccc3C)cn12` (stereo not given), the “bacterial growth OD600” value (polymyxin B 1 µg/mL) is reported as 0.019.

In the case of `O=C(c1ccncc1)N1CCc2onc(-c3ccc(C(F)(F)F)cc3)c2C1`, the “bacterial growth OD600” value (polymyxin B 0.75 µg/mL) is reported as 0.993.

With `C[C@@H]1CN(C(=O)C2CCN(c3nc(-c4ccccc4)nc4c3CCC4)CC2)C[C@H](C)O1` the “bacterial growth OD600” value (polymyxin B 0.75 µg/mL) was 0.847.

`c1ccc(CN(CC2CCN(C3Cc4ccccc4C3)CC2)CC2CCCO2)nc1` (stereo not given) was tested, and the “bacterial growth OD600” value (polymyxin B 1 µg/mL) was 0.656.

For `O=C(NCCCc1ccccc1)C1CCC(=O)N(Cc2ccc(Cl)cc2)C1` (stereo not given), the “bacterial growth OD600” value (polymyxin B 1 µg/mL) was 0.752.

With `CCOC(=O)C1CCCN(C(=O)c2cc(COc3ccc4c(c3)OCO4)[nH]n2)C1` (stereo not given) the “bacterial growth OD600” value (polymyxin B 1 µg/mL) was 0.966.

With `COc1ccc(OC2CCN(C(=O)C3CC3)CC2)c(C(=O)NCc2ccccc2C)c1` the “bacterial growth OD600” value (polymyxin B 1 µg/mL) was 1.01.

With `C1CCC(Nc2nc3nonc3nc2NCC2CCOCC2)C1` the “bacterial growth OD600” value (polymyxin B 1 µg/mL) was 0.876.

With `Cc1nc(N2CCC(N(C)C(C)C)CC2)nc2cc3c(cc12)CCC3` the “bacterial growth OD600” value (polymyxin B 0.75 µg/mL) was 0.591.
